Measured values published in paper doi:10.1101/2023.11.13.566796.
Results are given in words; binding and its absence hold for the method and conditions named. In cells and extracts the contact can be indirect. Some entries that bind do so weakly or less than the wild type. Sequences can lack the tags named with a protein.

Chains of the proteins cited; added tags and fusions are not shown.
UniProt P49024: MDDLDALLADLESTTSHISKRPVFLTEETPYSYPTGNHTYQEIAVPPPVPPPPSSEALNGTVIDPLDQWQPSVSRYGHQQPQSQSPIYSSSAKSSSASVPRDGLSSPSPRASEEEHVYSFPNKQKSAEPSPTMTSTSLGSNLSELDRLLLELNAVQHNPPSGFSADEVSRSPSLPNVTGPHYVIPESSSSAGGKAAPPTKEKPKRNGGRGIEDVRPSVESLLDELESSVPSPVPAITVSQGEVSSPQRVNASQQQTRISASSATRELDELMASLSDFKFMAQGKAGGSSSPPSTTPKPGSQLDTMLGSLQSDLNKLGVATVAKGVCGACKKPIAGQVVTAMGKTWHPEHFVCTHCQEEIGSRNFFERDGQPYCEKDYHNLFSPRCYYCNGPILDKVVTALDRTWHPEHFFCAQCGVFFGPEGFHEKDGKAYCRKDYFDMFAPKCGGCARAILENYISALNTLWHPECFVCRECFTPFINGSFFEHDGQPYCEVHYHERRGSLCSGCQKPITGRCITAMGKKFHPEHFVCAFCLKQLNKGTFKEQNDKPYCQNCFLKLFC
UniProt Q00944: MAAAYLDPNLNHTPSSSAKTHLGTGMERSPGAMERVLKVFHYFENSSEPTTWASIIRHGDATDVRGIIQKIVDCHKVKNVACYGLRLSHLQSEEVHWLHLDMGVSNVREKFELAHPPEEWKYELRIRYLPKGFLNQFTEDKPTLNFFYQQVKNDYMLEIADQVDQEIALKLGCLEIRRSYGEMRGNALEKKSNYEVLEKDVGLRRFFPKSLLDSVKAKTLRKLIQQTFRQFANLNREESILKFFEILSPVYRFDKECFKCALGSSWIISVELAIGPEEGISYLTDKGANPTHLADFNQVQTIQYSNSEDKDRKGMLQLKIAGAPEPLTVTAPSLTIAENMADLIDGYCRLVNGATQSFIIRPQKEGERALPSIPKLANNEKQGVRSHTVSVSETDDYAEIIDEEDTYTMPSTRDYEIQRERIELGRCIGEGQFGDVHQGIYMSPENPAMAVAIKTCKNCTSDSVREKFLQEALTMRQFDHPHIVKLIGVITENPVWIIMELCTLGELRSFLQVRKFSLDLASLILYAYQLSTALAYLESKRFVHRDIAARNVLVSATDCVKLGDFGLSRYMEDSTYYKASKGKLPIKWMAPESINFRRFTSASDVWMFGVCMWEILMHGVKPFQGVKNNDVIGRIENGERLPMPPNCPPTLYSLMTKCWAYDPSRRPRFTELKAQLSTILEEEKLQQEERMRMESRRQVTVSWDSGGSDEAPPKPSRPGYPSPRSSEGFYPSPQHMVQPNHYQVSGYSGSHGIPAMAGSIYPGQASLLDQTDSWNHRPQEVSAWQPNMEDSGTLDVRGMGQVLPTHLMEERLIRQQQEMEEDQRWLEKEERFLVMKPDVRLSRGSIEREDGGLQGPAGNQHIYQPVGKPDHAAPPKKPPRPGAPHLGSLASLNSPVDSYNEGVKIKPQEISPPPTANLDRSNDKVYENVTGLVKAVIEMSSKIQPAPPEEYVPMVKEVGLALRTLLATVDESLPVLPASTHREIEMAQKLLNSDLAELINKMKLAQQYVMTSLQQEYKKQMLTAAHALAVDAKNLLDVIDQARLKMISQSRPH

T1: HA-tagged full-length BNIP-2 (human) (UniProt Q12982)
T1 sequence: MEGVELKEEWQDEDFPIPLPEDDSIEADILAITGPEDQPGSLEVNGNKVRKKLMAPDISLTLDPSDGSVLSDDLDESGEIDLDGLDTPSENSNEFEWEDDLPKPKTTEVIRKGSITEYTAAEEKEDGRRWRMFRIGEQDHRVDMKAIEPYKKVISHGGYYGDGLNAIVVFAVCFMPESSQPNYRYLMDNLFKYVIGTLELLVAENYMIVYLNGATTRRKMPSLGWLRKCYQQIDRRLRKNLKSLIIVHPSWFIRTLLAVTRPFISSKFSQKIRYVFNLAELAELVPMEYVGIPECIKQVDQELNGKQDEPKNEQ


Assays:
Test in all cases: co-IP
GFP-paxillin = GFP-paxillin (UniProt P49024)
GFP-FAK (Gallus gallus) = GFP-FAK (Gallus gallus) (UniProt Q00944)
[1] = target: T1, HA-tagged full-length BNIP-2 (human)

binding (GFP-paxillin) | binding (GFP-FAK (Gallus gallus)) | binding [1] | Binder
binds | binds | – | FLAG-BNIP-2 (protein, UniProt Q12982 1-314) MEGVELKEEWQDEDFPIPLPEDDSIEADILAITGPEDQPGSLEVNGNKVRKKLMAPDISLTLDPSDGSVLSDDLDESGEIDLDGLDTPSENSNEFEWEDDLPKPKTTEVIRKGSITEYTAAEEKEDGRRWRMFRIGEQDHRVDMKAIEPYKKVISHGGYYGDGLNAIVVFAVCFMPESSQPNYRYLMDNLFKYVIGTLELLVAENYMIVYLNGATTRRKMPSLGWLRKCYQQIDRRLRKNLKSLIIVHPSWFIRTLLAVTRPFISSKFSQKIRYVFNLAELAELVPMEYVGIPECIKQVDQELNGKQDEPKNEQ
– | – | binds | GFP-BNIP-2-cBCH (domain or fragment, UniProt Q12982 126-314) DGRRWRMFRIGEQDHRVDMKAIEPYKKVISHGGYYGDGLNAIVVFAVCFMPESSQPNYRYLMDNLFKYVIGTLELLVAENYMIVYLNGATTRRKMPSLGWLRKCYQQIDRRLRKNLKSLIIVHPSWFIRTLLAVTRPFISSKFSQKIRYVFNLAELAELVPMEYVGIPECIKQVDQELNGKQDEPKNEQ
